According to patent US20120269834A1 (priority 2010, published 2012):

Test: general procedure: Fmoc solid-phase peptide synthesis; Fmoc-Glu(OtBu)-Wang Resin; FastMoc chemistry
Details: whole synthesis, scale 0.25 mmol

CTSPPSPSPAPE (conjugated to KLH; Peptide immunogen based on Strep pyrognes cleavage of human IgG1)
crude mass: Approximately 190 mg
isolated mass: 38 mg

Where a sequence shows no end group, the ends are not given.
